From patent publication JP2021530247A
No constants are given. Whether binding was seen depends on the method and setting. Some results given as binding are weak or reduced against the parent protein; the word gives no strength.

Amino acid sequences for entries named in this document (tags omitted). A change or cut given only in a name is not applied to a line headed by its entry. Chains listed by the source or under a name are the forms on record and can include a tag or linker.
C末端10×His BCL-2断片 HuBcl-2 10×His pET303 (P10415, form named): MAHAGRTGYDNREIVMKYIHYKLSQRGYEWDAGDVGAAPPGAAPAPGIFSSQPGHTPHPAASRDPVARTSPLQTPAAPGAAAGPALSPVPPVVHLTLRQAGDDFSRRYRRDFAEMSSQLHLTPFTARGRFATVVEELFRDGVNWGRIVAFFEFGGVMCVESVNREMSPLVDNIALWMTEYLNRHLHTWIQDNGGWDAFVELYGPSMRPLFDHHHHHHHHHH

How the values were obtained:
[1] = target: C末端10×His BCL-2断片 HuBcl-2 10×His pET303 (human) (UniProt P10415); experiment: matched-pair sandwich ELISA, biotin tracer with 10A12 capture, 25 ng/mL rBcl-2
[2] = target: C末端10×His BCL-2断片 HuBcl-2 10×His pET303 (human) (UniProt P10415); experiment: lateral flow assay, detector
[3] = target: C末端10×His BCL-2断片 HuBcl-2 10×His pET303 (human) (UniProt P10415); experiment: lateral flow assay, 40 nm gold detector with 10A12 capture, 100 ng/mL BCL-2
[4] = target: C末端10×His BCL-2断片 HuBcl-2 10×His pET303 (human) (UniProt P10415); experiment: sandwich EIA, biotinylated detector 1:1K, 2 ng/mL rBCL-2
[5] = target: C末端10×His BCL-2断片 HuBcl-2 10×His pET303 (human) (UniProt P10415); experiment: lateral flow (LFS), detector
[6] = target: C末端10×His BCL-2断片 HuBcl-2 10×His pET303 (human) (UniProt P10415); experiment: semi-optimised sandwich ELISA, detector with 10A12 capture
[7] = target: C末端10×His BCL-2断片 HuBcl-2 10×His pET303 (human) (UniProt P10415); experiment: lateral flow assay, gold detector, 0/1/10/100 ng/mL BCL-2
[8] = target: C末端10×His BCL-2断片 HuBcl-2 10×His pET303 (human) (UniProt P10415); experiment: lateral flow assay, gold detector with 18E10 or 02C10 capture, 100 ng/mL BCL-2
[9] = target: C末端10×His BCL-2断片 HuBcl-2 10×His pET303 (human) (UniProt P10415); experiment: matched-pair sandwich ELISA, capture 2 ug/mL, biotin conjugate 1 ug/mL, 25 ng/mL rBcl-2
[10] = target: C末端10×His BCL-2断片 HuBcl-2 10×His pET303 (human) (UniProt P10415); experiment: lateral flow assay, striped capture 0.5 mg/mL, 0/1/10/100 ng/mL BCL-2
[11] = target: C末端10×His BCL-2断片 HuBcl-2 10×His pET303 (human) (UniProt P10415); experiment: lateral flow assay, detector (also capture in set #3)
[12] = target: C末端10×His BCL-2断片 HuBcl-2 10×His pET303 (human) (UniProt P10415); experiment: lateral flow assay, capture spot 0.5 mg/mL, 100 ng/mL BCL-2
[13] = target: C末端10×His BCL-2断片 HuBcl-2 10×His pET303 (human) (UniProt P10415); experiment: lateral flow (LFS), detector or capture
[14] = target: C末端10×His BCL-2断片 HuBcl-2 10×His pET303 (human) (UniProt P10415); experiment: sandwich EIA, 200 ng capture per well, biotinylated detector 1:1K, 2 ng/mL rBCL-2
[15] = target: C末端10×His BCL-2断片 HuBcl-2 10×His pET303 (human) (UniProt P10415); experiment: semi-optimised sandwich ELISA, capture

Measured: binding

B1: Bcl-2-61 Pep-KLH-BA-1.1-14A09-02C08-02F06 (antibody, V domains shown)
VH: EVQLQQSGPELVNPGASVKMSCKASGYTFTDYYLDWVKQSHGESFEWIGRANPYNGVTNSNQKFKGKATLTVDMSSSTAFMELNSLTFEDSAVYYCARSSFDVWGAGTTVTVSS
VL: DIVITQDELSHPVTSGESVSISCRSSKSLLYKDGKTYLNWFLQRPGQSPQLLIYLVSTRASGVSDRFSGSGSGTDFTLEISRVKAEDVGVYYCQQPVEYPFTFGSGTKLEIK
binds: [1] | [2] | [3] | [4] | [5] | [6] | [7]

B2: Bcl-2-41 Pep-KLH-BA-1.3-10A12-02F02 (antibody, V domains shown)
VH: QVQLQQSGPQLVRPGASVKISCKASGYSFTSYWMHWVKQRPGQGLEWIGMIDPSDSETRLNQKFKDKATLTVDKSSSTAYMQLSRPTFEDSAVYYCERGDYYYGSSYFAYWGQGTLVTVSA
VL: QAVVTQESALTTSPGETITLTCRSSTGAVTTSNYATWVQEKPDHLFTGLMGGTTYRAPGVPARFSGSLIGDKAALTITGAQTEDEAMYFCALWFSNHFWVFGGGTKLTVL
not listed: [1] | [2] | [3] | [4] | [5] | [6]
binds: all other assays above
